{"sequences": {"note": "The chains behind the UniProt entries cited, without tags or fusion partners. Residues count along the entry.", "UniProt Q9DC69, residues 36-377": "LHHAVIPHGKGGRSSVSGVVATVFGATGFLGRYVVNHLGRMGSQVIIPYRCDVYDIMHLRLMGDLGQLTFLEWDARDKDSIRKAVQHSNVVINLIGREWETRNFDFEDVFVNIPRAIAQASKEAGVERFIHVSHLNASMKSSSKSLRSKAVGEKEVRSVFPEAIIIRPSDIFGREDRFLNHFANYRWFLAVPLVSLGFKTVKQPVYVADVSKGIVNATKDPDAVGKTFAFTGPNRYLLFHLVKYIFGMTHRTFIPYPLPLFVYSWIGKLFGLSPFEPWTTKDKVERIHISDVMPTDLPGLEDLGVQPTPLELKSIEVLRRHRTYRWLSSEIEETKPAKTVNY"}, "source": "paper PMC11425199", "target": "T1, FLAG-tagged Aifm3 (apoptosis-inducing factor mitochondria associated 3) (mouse) (UniProt Q3TY86)", "T1 sequence": "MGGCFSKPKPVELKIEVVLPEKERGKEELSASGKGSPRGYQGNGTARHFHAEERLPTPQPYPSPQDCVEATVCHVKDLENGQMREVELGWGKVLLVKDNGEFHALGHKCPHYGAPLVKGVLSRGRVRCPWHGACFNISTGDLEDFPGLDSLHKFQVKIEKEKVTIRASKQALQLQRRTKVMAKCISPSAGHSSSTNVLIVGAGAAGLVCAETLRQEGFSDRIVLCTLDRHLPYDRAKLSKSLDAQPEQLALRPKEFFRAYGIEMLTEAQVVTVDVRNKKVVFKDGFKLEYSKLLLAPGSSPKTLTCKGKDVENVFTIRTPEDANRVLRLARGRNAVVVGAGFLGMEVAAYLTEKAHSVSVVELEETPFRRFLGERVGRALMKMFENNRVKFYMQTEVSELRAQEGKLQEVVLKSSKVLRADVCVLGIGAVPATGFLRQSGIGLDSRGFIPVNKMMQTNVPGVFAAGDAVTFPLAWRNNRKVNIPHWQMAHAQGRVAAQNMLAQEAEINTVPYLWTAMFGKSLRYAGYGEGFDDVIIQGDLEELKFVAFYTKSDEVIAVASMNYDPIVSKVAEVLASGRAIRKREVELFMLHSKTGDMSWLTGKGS", "test": "co-IP; N2a cells co-transfected with FLAG- and HA-tagged overexpression plasmids for 3 d; lysed in co-IP lysis buffer (Beyotime) with 1% PMSF and 1% protease inhibitor cocktail; supernatant incubated with anti-Flag or HA-tag magnetic beads (MBL) at 4° overnight; washed 3 times with cold 0.02% PBST; Western blot", "note": "Results are given in words; binding and its absence hold for the method and conditions named. In cells and extracts the contact can be indirect. Some binding calls cover weakened binding; strength is not graded here. Tags and fused reporters may be left off the sequences shown."}
{"substance": "HA-tagged Ndufa9 (from UniProt Q9DC69 36-377)", "values": [{"measurement": "binding", "value": "binds"}]}
